Measured values published in patent US7038022, “Multimeric forms of members of the steroid/thyroid superfamily of receptors” (The Salk Institute for Biological Studies).
No constants are given. Whether binding was seen depends on the method and setting. For some assays here: In cells and extracts the contact can be indirect. Some results given as binding are weak or reduced against the parent protein; the word gives no strength.

Assays:
[1] = target: T1, vitamin D receptor (VDR), synthesized in vitro (UniProt P11473); assay: immunoprecipitation and gel mobility shift (figure legend)
T1 sequence (looked up): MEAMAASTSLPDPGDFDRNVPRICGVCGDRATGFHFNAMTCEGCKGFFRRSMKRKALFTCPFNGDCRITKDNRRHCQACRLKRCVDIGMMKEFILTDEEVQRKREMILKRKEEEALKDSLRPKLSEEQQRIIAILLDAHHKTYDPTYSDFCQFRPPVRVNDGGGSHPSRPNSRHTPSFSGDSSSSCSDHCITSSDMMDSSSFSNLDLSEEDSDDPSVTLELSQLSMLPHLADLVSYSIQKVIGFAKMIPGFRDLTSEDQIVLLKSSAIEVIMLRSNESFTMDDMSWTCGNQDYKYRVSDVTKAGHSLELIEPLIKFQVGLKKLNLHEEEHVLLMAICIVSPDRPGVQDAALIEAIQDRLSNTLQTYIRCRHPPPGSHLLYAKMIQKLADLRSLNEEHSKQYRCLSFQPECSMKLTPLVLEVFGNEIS

[2] = target: T2, thyroid receptor-beta (TRβ), synthesized in vitro (UniProt P10828); assay: as above
T2 sequence (looked up): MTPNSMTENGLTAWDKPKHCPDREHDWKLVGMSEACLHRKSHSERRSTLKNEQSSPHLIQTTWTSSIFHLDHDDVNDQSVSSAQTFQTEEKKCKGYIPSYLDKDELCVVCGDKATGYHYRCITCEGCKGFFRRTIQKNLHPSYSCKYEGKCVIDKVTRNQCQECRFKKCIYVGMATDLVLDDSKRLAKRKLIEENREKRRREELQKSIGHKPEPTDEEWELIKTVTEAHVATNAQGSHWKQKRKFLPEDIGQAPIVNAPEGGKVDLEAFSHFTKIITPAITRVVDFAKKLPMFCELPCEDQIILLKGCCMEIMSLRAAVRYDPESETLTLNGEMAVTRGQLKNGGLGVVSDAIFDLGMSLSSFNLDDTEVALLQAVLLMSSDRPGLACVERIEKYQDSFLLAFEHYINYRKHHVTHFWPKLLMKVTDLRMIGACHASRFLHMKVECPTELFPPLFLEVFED

[3] = target: T3, truncated RAR protein consisting of only the C-terminal region of RAR (UniProt P10276); assay: co-immunoprecipitation with RXR antiserum, 35S-labeled truncated RAR
T3 sequence (looked up): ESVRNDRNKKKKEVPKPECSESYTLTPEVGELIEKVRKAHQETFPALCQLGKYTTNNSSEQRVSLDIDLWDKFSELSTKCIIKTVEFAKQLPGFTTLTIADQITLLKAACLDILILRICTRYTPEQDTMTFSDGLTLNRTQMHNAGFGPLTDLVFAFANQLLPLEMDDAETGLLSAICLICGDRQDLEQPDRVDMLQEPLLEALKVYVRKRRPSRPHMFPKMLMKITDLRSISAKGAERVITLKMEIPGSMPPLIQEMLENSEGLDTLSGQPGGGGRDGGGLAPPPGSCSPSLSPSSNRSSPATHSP

[4] = target: T1, vitamin D receptor (VDR), synthesized in vitro; assay: co-immunoprecipitation with RXR antiserum
[5] = target: T2, thyroid receptor-beta (TRβ), synthesized in vitro; assay: co-immunoprecipitation with RXR antiserum

Measured: binding

B1: RXR-glutathione-S-transferase fusion protein (hRXRα expressed in bacteria as a fusion with glutathione-S-transferase, pGEX-2T) (receptor, human, UniProt P19793 1-462, looked up)
chain: MDTKHFLPLDFSTQVNSSLTSPTGRGSMAAPSLHPSLGPGIGSPGQLHSPISTLSSPINGMGPPFSVISSPMGPHSMSVPTTPTLGFSTGSPQLSSPMNPVSSSEDIKPPLGLNGVLKVPAHPSGNMASFTKHICAICGDRSSGKHYGVYSCEGCKGFFKRTVRKDLTYTCRDNKDCLIDKRQRNRCQYCRYQKCLAMGMKREAVQEERQRGKDRNENEVESTSSANEDMPVERILEAELAVEPKTETYVEANMGLNPSSPNDPVTNICQAADKQLFTLVEWAKRIPHFSELPLDDQVILLRAGWNELLIASFSHRSIAVKDGILLATGLHVHRNSAHSAGVGAIFDRVLTELVSKMRDMQMDKTELGCLRAIVLFNPDSKGLSNPAEVEALREKVYASLEAYCKHKYPEQPGRFAKLLLRLPALRSIGLKCLEHLFFFKLIGDTPIDTFLMEMLEAPHQMT
notes: GST placed N-terminal as in pGEX-2T vectors; also called RXR-GST; GST-RXR; not shown: glutathione-S-transferase encoded by the pGEX-2T expression vector
binds: all assays above
